These are yes or no findings as the source states them, for the method shown. In cells and extracts the contact can be indirect. Some binding calls cover weakened binding; strength is not graded here. For part of these data: Tags and fused reporters may be left off the sequences shown.

By UniProt entry, the sequences of proteins in these tests, tags left out. Residues count along the entry.
UniProt Q9Y6W5, whole entry: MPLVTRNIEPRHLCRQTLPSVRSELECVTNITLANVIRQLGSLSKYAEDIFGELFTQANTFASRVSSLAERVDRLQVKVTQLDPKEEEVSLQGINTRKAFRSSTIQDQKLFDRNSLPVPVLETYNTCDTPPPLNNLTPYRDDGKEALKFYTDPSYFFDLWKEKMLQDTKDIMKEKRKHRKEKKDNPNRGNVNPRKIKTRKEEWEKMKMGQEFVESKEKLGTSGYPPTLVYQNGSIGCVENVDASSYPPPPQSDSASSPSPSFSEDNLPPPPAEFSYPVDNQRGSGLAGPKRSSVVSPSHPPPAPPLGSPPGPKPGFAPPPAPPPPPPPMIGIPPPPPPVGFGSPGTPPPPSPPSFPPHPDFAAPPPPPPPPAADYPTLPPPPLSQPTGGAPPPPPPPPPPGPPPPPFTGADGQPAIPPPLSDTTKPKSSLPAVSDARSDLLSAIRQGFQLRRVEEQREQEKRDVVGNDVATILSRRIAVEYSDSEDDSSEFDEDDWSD
UniProt Q9Y6W5, 300-419: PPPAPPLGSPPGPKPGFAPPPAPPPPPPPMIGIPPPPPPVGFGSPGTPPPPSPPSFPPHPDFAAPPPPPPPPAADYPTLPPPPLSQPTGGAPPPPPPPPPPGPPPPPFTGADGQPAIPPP
UniProt Q9NSV4, 1-1057: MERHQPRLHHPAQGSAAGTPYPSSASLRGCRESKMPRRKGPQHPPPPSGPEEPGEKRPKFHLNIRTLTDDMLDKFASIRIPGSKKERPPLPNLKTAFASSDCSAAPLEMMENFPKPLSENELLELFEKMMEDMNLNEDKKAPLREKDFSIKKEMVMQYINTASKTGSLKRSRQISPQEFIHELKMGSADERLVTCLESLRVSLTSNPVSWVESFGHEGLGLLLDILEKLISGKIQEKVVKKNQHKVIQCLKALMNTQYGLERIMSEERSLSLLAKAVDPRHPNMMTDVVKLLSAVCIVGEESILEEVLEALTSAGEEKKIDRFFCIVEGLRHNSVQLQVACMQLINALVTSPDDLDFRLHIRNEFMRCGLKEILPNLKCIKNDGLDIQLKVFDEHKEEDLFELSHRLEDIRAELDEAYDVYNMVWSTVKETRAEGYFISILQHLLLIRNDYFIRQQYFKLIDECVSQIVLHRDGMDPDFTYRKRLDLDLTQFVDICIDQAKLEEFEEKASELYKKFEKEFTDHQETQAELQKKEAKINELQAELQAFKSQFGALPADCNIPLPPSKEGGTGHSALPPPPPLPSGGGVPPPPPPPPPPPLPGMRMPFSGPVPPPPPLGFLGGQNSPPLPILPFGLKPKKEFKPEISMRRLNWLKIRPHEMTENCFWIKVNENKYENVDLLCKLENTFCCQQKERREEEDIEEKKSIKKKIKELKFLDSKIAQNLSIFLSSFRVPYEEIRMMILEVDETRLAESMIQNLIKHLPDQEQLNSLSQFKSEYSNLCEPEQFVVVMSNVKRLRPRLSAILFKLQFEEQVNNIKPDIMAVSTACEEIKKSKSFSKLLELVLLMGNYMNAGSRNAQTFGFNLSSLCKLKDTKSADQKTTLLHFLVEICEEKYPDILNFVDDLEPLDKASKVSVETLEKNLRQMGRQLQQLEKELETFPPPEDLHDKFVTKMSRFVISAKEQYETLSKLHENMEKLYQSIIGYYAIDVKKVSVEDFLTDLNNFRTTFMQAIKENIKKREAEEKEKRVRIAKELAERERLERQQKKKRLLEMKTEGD
UniProt Q9NSV4, 506-696: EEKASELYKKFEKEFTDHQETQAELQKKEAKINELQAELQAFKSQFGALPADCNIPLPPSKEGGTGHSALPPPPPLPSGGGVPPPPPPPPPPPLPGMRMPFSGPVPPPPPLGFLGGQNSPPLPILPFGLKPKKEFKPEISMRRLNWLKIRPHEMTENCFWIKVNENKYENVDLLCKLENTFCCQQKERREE
UniProt Q9HD67, 1486-2058: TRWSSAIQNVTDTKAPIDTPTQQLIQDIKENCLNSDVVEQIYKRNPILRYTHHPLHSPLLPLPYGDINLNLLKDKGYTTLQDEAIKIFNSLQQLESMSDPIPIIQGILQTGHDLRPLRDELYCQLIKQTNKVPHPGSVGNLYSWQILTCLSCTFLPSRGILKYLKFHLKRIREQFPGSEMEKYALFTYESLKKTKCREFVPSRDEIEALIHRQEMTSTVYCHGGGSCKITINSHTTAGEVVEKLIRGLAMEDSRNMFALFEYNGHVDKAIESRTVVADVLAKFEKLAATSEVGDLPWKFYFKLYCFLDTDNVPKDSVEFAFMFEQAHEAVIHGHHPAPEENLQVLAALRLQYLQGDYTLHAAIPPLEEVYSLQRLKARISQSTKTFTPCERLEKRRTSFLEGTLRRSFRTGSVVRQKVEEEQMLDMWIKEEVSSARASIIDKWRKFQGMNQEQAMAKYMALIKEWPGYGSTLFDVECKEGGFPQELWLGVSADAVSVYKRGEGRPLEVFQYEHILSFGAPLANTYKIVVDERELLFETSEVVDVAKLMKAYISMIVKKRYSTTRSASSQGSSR

One test concerns the target T1, GST-ARHGAP39 aa1-134 (Wdom) (UniProt Q9C0H5).
T1 sequence: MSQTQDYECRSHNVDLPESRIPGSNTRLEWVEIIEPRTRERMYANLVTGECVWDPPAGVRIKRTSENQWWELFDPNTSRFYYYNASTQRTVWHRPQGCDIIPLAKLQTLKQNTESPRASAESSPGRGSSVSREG
The experiment in a line: pull-down.
For “HA-WAVE2 poly-proline region (PP, aa300-419) (from UniProt Q9Y6W5 300-419) (domain or fragment)”, the binding result is listed as “binds”. With “HA-WAVE2 full-length (from UniProt Q9Y6W5 1-498)”, the binding entry is “binds”. “HA-mDia2 deltaDAD (aa1-1057) (from UniProt Q9NSV4 1-1057) (domain or fragment)”: the binding result is recorded as “binds”. On the same count and under the same terms, for “HA-mDia2 FH1 domain (aa506-696) (from UniProt Q9NSV4 506-696) (domain or fragment)” the value was “binds”; for “endogenous WAVE (from UniProt Q9Y6W5 1-498)”, “binds”.

In another test the target is GST-Myo10 Myth-FERM domain (aa1486-2058) (UniProt Q9HD67). In words: pull-down.
On to “HA-ARHGAP39-3YA (Y313, 325, 785A) (from UniProt Q9C0H5 1-1083)”, for which the binding entry is reported as “no binding”.
